Isolated mass data for one substance are collected here from US20070232639 (published 2007).

The series is described as follows: general procedure: Fmoc solid-phase peptide synthesis; Sasrin resin; HOBT, TBTU, DIEA. As to conditions: whole synthesis, scale 0.69 mmol, TFA.

Substance c(Arg(Pmc)-Gly-As-p(OtBu)-D-Phe-Aad) displayed an isolated mass of 187 mg.
